Laboratory results as given in patent publication US11452292B2, “Biofilm inhibitor and method of inhibiting biofilm” (NDSU Research Foundation, priority 2017, dated 2022).
For at least one compound, name, drawing or mass did not settle the structure.

Tested on: E. coli O157:H7
Experiment: Biofilm amounts in liquid beef broth at 10° C.
Assay type: cell-based
Details: E. coli O157:H7 grown in liquid beef broth at 10° C.

With `CC(=O)CC(=O)O` [AAA, acetoacetate] the “effect on bacterial cell counts and biofilm amounts” value was “inhibit bacterial cell counts and biofilm amounts”.
